Experimental findings from article PMC7732313 are described below.

Amino acid sequences for entries named in this document (tags omitted).
UniProt O14746: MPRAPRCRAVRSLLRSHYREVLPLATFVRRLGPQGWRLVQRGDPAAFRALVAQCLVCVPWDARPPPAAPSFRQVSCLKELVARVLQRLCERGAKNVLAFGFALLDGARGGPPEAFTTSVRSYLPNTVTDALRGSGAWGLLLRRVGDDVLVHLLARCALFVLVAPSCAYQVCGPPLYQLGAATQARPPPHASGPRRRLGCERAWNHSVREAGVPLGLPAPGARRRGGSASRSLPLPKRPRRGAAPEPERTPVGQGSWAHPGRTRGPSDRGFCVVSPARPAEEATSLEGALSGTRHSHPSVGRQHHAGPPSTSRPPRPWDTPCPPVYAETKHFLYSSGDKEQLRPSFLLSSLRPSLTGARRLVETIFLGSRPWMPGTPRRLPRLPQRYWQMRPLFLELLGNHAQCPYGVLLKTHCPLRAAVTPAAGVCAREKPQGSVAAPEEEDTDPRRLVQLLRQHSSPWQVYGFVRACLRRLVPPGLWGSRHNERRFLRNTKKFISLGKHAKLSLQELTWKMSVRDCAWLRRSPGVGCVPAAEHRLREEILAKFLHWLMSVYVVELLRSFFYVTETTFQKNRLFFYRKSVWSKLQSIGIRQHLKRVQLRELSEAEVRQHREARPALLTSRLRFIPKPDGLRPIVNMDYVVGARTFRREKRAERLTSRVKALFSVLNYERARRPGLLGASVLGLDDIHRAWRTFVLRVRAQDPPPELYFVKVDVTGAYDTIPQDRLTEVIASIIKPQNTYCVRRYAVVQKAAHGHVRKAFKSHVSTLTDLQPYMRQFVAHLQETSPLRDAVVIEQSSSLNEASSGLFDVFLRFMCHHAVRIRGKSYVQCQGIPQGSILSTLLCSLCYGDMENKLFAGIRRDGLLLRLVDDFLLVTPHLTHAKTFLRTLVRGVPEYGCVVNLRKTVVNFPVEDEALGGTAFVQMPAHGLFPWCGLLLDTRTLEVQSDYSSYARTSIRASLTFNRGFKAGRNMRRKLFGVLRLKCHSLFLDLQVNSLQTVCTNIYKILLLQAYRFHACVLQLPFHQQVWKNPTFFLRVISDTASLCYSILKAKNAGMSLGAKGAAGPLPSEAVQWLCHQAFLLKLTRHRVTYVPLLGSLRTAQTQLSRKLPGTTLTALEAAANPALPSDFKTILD

No constants are given. Whether binding was seen depends on the method and setting. In cells and extracts the contact can be indirect. Some entries that bind do so weakly or less than the wild type.

The experiment deals with telomerase reverse transcriptase (human (endogenous in PLC/PRF5)) (UniProt O14746). As to the kind of experiment: co-IP; soluble protein samples of PLC/PRF5 cells, pre-incubated with protein G/A-agarose at 4°C overnight, then incubated with protein G/A-agarose pre-coupled to primary antibodies for at least 3 h; washed, boiled, western blot.

B1: NHP2 (protein, UniProt Q9NX24 1-153)
chain: MTKIKADPDGPEAQAEACSGERTYQELLVNQNPIAQPLASRRLTRKLYKCIKKAVKQKQIRRGVKEVQKFVNKGEKGIMVLAGDTLPIEVYCHLPVMCEDRNLPYVYIPSKTDLGAAAGSKRPTCVIMVKPHEEYQEAYDECLEEVQSLPLPL
On to B1, for which the binding entry is given as “binds”.
